Results deposited as PubChem BioAssay AID1224830 (NIAID, 2016)
The deposit covers about 18,000 reagents; shown is a random part of them. Over the whole deposit, about 2,900 (16%) were called active. 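Calls are made per well; low scores hint the gene aids the LPS response, high scores that it dampens it.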 Unmarked entries are inactive. Repeated entries: four replicate wells of each siRNA pool. Reagent sequences are not shown.

Purpose: 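Regulators of TLR4 signalling towards TNF-alpha in macrophage-like cells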 (primary screen)
Cells: human THP-1 monocytic leukaemia cells, TNF dual-luciferase reporter clone, PMA-differentiated to macrophage-like cells
Reagents: siRNA pool against human genes, 50 nM
Time to read-out: LPS for 4 h, given about 3 days after siRNA transfection
Treatment: bacterial LPS (TLR4 ligand), 10 ng/ml
Measurement: 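TNF firefly reporter luminescence divided by renilla, normalised to the plate median, then turned into a robust z-score for each replicate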
Scale: TNF reporter robust z-score: higher = stronger TNF reporter response to LPS
Rule for the call: 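a well is active when its z-score exceeds 2.8 or falls below -1.5; control wells carry no call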

| gene | TNF reporter robust z-score |
| --- | --- |
| TBL3 | -0.19 |
| TBL3 | -0.94 |
| TBL3 | 0.33 |
| TBL3 | -0.88 |
| B4GALT7 | 0.01 |
| B4GALT7 | 0.1 |
| B4GALT7 | 0.11 |
| B4GALT7 | 1.5 |
| FBXL9P | -1.75 (active) |
| FBXL9P | 0.2 |
| FBXL9P | 1.28 |
| FBXL9P | 0.61 |
| SRRM2 | 1.8 |
| SRRM2 | -0.23 |
| SRRM2 | -1.03 |
| SRRM2 | -0.4 |
| HEPACAM2 | 2.01 |
| HEPACAM2 | 0.87 |
| HEPACAM2 | -0.4 |
| HEPACAM2 | 1.27 |
| CCL18 | -0.62 |
| CCL18 | -1.28 |
| CCL18 | -1.34 |
| CCL18 | -1.02 |
| TEX2 | -1.77 (active) |
| TEX2 | -1.99 (active) |
| TEX2 | -1.36 |
| TEX2 | -1.23 |
| HYKK | 0 |
| HYKK | 1.39 |
| HYKK | -0.38 |
| HYKK | 0.3 |
| ZNF483 | 2.08 |
| ZNF483 | 1.25 |
| ZNF483 | 0.76 |
| ZNF483 | 3.81 (active) |
| VCY | -0.07 |
| VCY | -0.12 |
| VCY | -0.93 |
| VCY | -0.75 |
| SIT1 | -1.06 |
| SIT1 | -1.43 |
| SIT1 | -0.51 |
| SIT1 | -0.89 |
| TRPC4AP | 1.61 |
| TRPC4AP | 0.83 |
| TRPC4AP | 1.2 |
| TRPC4AP | 0.67 |
| PPP1R3C | -0.93 |
| PPP1R3C | -0.6 |
| PPP1R3C | -0.81 |
| PPP1R3C | -0.56 |
| KCTD12 | -0.64 |
| KCTD12 | -0.25 |
| KCTD12 | -0.62 |
| KCTD12 | -0.68 |
| TEAD2 | -0.56 |
| TEAD2 | 0.33 |
| TEAD2 | 1.11 |
| TEAD2 | 1.71 |

Continued (3 carried over from the part before).
| gene | TNF reporter robust z-score |
| --- | --- |
| TEAD2 | 0.33 |
| TEAD2 | 1.11 |
| TEAD2 | 1.71 |
| INSL5 | -0.07 |
| INSL5 | -0.14 |
| INSL5 | -0.5 |
| INSL5 | -0.08 |
| SON | -1.33 |
| SON | -1.17 |
| SON | -1.3 |
| SON | -0.98 |
| RRAS | 0.38 |
| RRAS | 0.95 |
| RRAS | -0.12 |
| RRAS | -0.05 |
| AMD1 | 0.41 |
| AMD1 | 0.78 |
| AMD1 | 0.03 |
| AMD1 | 0.77 |
| HDAC8 | 0.36 |
| HDAC8 | 0.27 |
| HDAC8 | 0.71 |
| HDAC8 | 0.08 |
| GHDC | -0.48 |
| GHDC | -0.21 |
| GHDC | -1.37 |
| GHDC | -0.08 |
| GNL3 | -1.12 |
| GNL3 | -0.37 |
| GNL3 | 1.37 |
| GNL3 | -0.29 |
| FAM161B | 0.58 |
| FAM161B | 0.38 |
| FAM161B | -0.45 |
| FAM161B | 0.02 |
| AREG | -0.74 |
| AREG | -0.5 |
| AREG | -0.61 |
| AREG | -0.19 |
| MATCAP2 | -0.94 |
| MATCAP2 | -1.34 |
| MATCAP2 | -1.62 (active) |
| MATCAP2 | -1.06 |
| TIMM17A | 1.7 |
| TIMM17A | 1.26 |
| TIMM17A | 0.04 |
| TIMM17A | 2.75 |
| RAN | -0.3 |
| RAN | 0.3 |
| RAN | -0.72 |
| RAN | 1.11 |
| UBTF | -0.82 |
| UBTF | 0.56 |
| UBTF | -0.44 |
| UBTF | 0.91 |
